In article PMC9065627 one finds binding data, which are given here for seven substances.

Chains of the proteins cited; added tags and fusions are not shown. Lines headed by an entry give the natural chain unless they say otherwise; changes in a name come on top.
UniProt P18242: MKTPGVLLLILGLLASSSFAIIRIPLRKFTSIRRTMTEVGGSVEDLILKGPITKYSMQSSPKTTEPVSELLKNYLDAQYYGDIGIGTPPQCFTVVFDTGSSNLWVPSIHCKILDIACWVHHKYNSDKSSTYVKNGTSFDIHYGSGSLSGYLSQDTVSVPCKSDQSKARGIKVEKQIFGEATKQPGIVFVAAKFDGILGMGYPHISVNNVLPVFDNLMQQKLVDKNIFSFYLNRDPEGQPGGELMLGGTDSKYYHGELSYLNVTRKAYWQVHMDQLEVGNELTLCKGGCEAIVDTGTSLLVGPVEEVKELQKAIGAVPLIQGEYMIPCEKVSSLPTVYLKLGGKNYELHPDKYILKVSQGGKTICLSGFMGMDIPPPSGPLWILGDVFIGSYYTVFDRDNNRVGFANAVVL

These are yes or no findings as the source states them, for the method shown. For part of these data: In cells and extracts the contact can be indirect. Some results given as binding are weak or reduced against the parent protein; the word gives no strength. For part of these data: Where a sequence is shown, tags or fusion partners need not be part of it.

Assay [1] deals with T1, GAL4 DNA-BD-cMyc-A2AR^284–410 (C-terminal tail of mouse adenosine A2A receptor, two-hybrid bait) (mouse) (UniProt Q60613).
T1 sequence: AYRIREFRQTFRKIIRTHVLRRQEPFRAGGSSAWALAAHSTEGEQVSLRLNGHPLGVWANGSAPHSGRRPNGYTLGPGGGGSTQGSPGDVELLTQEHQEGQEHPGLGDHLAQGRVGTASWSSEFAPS
Kind of assay: two-hybrid; library screen by mating: bait BD-cMyc-A2AR^284–410 in Y2H Gold, prey mouse IPMΦ cDNA library (pGADT7-Rec) in Y187; diploids selected on SD/-Leu/-Trp then SD/-Ade/-His/-Leu/-Trp with X-alpha-Gal and Aureobasidin A.

Assay [2] deals with T2, GST-A2AR^284–410 (C terminus of mouse A2AR as a glutathione-S-transferase fusion protein) (mouse) (UniProt Q60613).
T2 sequence: T1 sequence
Kind of assay: pull-down; GST or GST-A2AR^284–410 held on MagneGST beads, incubated with 145 μg IPMΦ cell lysate in RIPA buffer for 2 h at 4 °C; blot with anti-CtsD; only the target purified.

Assay [3] deals with T3, cMyc-A2AR^284–410 (C terminus of mouse A2AR tagged with the cMyc epitope) (mouse) (UniProt Q60613).
T3 sequence: T1 sequence
Kind of assay: co-IP; RAW 264.7 cells transfected with pCMV-cMyc-A2AR^284–410; lysate in RIPA/PBS; IP with anti-cMyc antibody and Protein G magnetic beads, 4 °C overnight; blot with anti-CtsD; isotype IgG1 as control.

Assay [4] addresses T1, GAL4 DNA-BD-cMyc-A2AR^284–410 (C-terminal tail of mouse adenosine A2A receptor, two-hybrid bait) (mouse). The experiment in a line: two-hybrid; pairwise retransformation of Y2H Gold with pGBKT7-A2AR^284–410 and pGADT7-CtsD^321–410, four independent colonies; SD/Leu- Trp- Ade- His- with Aureobasidin and X-α-Gal.
For assay [5], the target named is endogenous adenosine A2A receptor (A2AR) of RAW 264.7 cells (mouse (endogenous in RAW 264.7)) (UniProt Q60613). Kind of assay: co-IP; endogenous proteins in RAW 264.7 lysate; IP with 8.5 μg anti-A2AR antibody and Protein G magnetic beads; blot with anti-CtsD; control without antibody; cells untreated or treated with LPS, CGS21680 or aspartyl protease inhibitor (Pepstatin A penetratin).

On to “Gal4 AD-CtsD AA295–410 (cathepsin D fragment, two-hybrid prey clone) (from UniProt P18242 295-410) (domain or fragment)”, for which, in assay [1], the binding entry is “binds”. Take “intermediate CtsD (intermediate single-chain form of cathepsin D), endogenous in mouse peritoneal macrophages (IPMΦ) (from UniProt P18242 65-410) (enzyme)”: in assay [2], the binding entry was “binds”. Still for that read-out and setting: in the case of “pro-CtsD (proform of cathepsin D), endogenous in mouse peritoneal macrophages (IPMΦ) (from UniProt P18242 21-410) (enzyme)” it was “binds”.

“pro-CtsD (proform of cathepsin D), endogenous in RAW 264.7 cells (from UniProt P18242 21-410) (enzyme)”: the binding entry in assay [3] is listed as “binds”. “Gal4 AD-CtsD AA273–410 (cathepsin D fragment, two-hybrid prey clone) (from UniProt P18242 273-410) (domain or fragment)”: in assay [1], the binding entry is reported as “binds”. Take “Gal4 AD-CtsD^321–410 (cathepsin D C-terminal fragment, two-hybrid prey) (from UniProt P18242 321-410) (domain or fragment)”: the binding entry in assay [4] and in assay [1] was “binds” throughout. “intermediate CtsD (intermediate single-chain form of cathepsin D), endogenous in RAW 264.7 cells (from UniProt P18242 65-410) (enzyme)”: the binding entry in assay [5] and in assay [3] was “binds” in each case.
